# Source: patent US20040047804A1, “Enhanced radiation therapy” (The General Hospital Corporation, a Massachusetts …, priority 1998, published 2004)
# At least one compound was matched to its structure with a doubt left.
# Tested on: V79 Chinese Hamster Ovary cancer cells
# Experiment: In vitro radiation enhancement, survival of irradiated tumor cells
# Type: cell-based
# Conditions: radiation dosage of 9.0 Gy
# Source text: The effect of the new radiodense compositions on cancer cells was also studied in vitro. Individual V79 Chinese Hamster Ovary cancer cells were suspended in nutrient medium in test tubes and mixed with a sufficient amount of one of several new radiodense compositions to increase the radiodensity of the cell suspension. […] At a radiation energy level of 12 Gy, about 8×10^-1 cells survived in the nutrient medium alone, while only 1×10^-3 to 1×10^-4 survived in the presence of the radiodense materials.
smiles,measurement,value
CC(=O)N(CC(O)CO)c1c(I)c(C(=O)NCC(O)CO)c(I)c(C(=O)NCC(O)CO)c1I (stereo not shown) [iohexol],relative effectiveness among the radiodense materials,more effective
